These results are taken from PMC3787057.

These are yes or no findings as the source states them, for the method shown. Binding seen in cells or lysates may run through a third protein. Some results given as binding are weak or reduced against the parent protein; the word gives no strength.

This assay deals with Cyclin-dependent kinase-5 (Cdk5) (human) (UniProt Q00535). Briefly: co-IP; hBMEC (hCMEC/D3) cell lysate in modified RIPA lacking ionic detergent, pre-cleared with sepharose-A slurry, protein A-sepharose CL-4B, Western blot; which of the two proteins was precipitated is not told. A general note: Immunoblotting shows a protein as a band on a membrane.

On to “myocyte enhancer factor MEF2C (from UniProt Q06413 1-473)”, for which the binding result is listed as “binds”.
